Some of the results follow. Further columns of the screen follow, without active or inactive calls. Most of these compounds were active or inconclusive in the main read-out, so they are no random draw. Potencies come from curve fits of mixed quality, noted in brackets.
Test: qHTS Assay for Lipid Storage Modulators in Drosophila S3 Cells;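 for cell number change: cells counted by Cell Tracker Red CMTPX staining in the red channel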
Conditions: BODIPY lipid droplet fluorescence, 18-24 h; for cell number change: measured here: cell count max response, cells fed with added oleic acid
Method in brief: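 Drosophila S3 cells loaded with oleic acid (400 uM, as added) and compounds at several concentrations; lipid droplets imaged by 488-nm laser-scanning cytometry, 500–530 nm intensity and object ratio to cell channel. Percent activity normalized to 20 uM Triacsin C.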

[1] = measured here: lipid fluorescence (Fed channel) AC50, cells fed with added oleic acid
[2] = measured here: cell number channel AC50, cells fed with added oleic acid

SMILES | cell number change [%] | AC50 [1] | AC50 [2]
CC(C)N(C(=O)Cn1cnc2c(cnn2-c2ccccc2Cl)c1=O)C(C)C | 5.34 | 0.651 µM [falling, single point] | –
Cc1ccc(NC(=O)CSc2nc(-c3cccs3)nc3cc(=O)[nH]n23)cc1C | 38.4 | 18.4 µM [rising, single point] | 18.4 µM [rising, single point]
Cc1ccnc(NC(=O)CCC(=O)N(CC(=O)NCc2ccccc2)c2ccc3c(c2)OCO3)c1 | 25.5 | 2.31 µM [rising, partial curve] | –
Cc1ccc(C)c(N2CCN(C(=O)C3CCN(c4nc(C)cc(C)n4)CC3)CC2)c1 | -15.9 | – | –
O=C(CCS(=O)(=O)c1ccc(Br)cc1)N1CCN(Cc2ccccc2)CC1 | -29.6 | 25.9 µM [falling, partial curve, poor fit] | –
O=[N+]([O-])c1ccc(/C=C2\CCC(C3=CCCC3)=C2N2CCOCC2)cc1 | -5.95 | 0.651 µM [rising, single point] | –
C#CCOCCOCCOCCNc1nc(N2CCN(C(=O)CCCCCCCCCCNC(=O)Cn3cc(CCCCCN)nn3)CC2)nc(N2CCN(C(=O)CCCCCCCCCCNC(=O)[C@@H](CCC(=O)O)n3cc(CCCCCN)nn3)CC2)n1 | 7 | 0.184 µM [falling, full curve, poor fit] | –
CC1=C(C(=O)OCC(C)C)C(c2ccsc2)NC(=O)N1 (configuration not stated) | -34 | 0.651 µM [falling, full curve] | 0.651 µM [falling, full curve, poor fit]
Cc1ccc(N2CCN(c3cc(C)nc4c5c(C)cc(C)nc5nn34)CC2)cc1 | 4.95 | – | –
O=[N+]([O-])c1ccccc1Nc1c2ccccc2nc2ccccc12 | -7.3 | – | 0.092 µM [rising, full curve, poor fit]
Cc1cc(NC(=O)CSc2nnc(CNC(=O)c3cccc(C(F)(F)F)c3)o2)no1 | 26 | – | –
COc1ccc(-c2cn3cccnc3n2)cc1NC(=O)Nc1cc(C)ccc1C | -81.1 | – | 16.4 µM [falling, single point]
CSc1nsc(SCc2ccc(F)cc2)n1 | -14.5 | – | –
Cc1ccc2c(c1)N(C)/C(=C/c1cccc[n+]1C)S2 | -54.3 | 6.51 µM [falling, partial curve] | 7.31 µM [falling, partial curve]
COCc1cc(CN2CCN(C)CC2)c(O)c2ncccc12 | -102 | 1.3 µM [falling, partial curve] | 29.1 µM [falling, single point]
CCS(=O)(=O)c1ccc2oc(SCC(=O)c3ccco3)nc2c1 | -4.32 | – | –
Cc1ccc(C(=O)OCC(=O)Nc2ccc(Cl)cn2)s1 | 8.11 | – | –
O=C(NCCc1ccco1)c1cc(COc2cccc(C(F)(F)F)c2)on1 | 12.9 | – | –
CCOc1ccc(N2CC(=O)SC2=S)cc1 | -20.4 | 2.91 µM [falling, partial curve, poor fit] | 3.66 µM [falling, single point]
C=CCn1c(CSc2nc3ccccc3s2)nnc1SCC(=O)NCc1cccnc1 | -18.6 | – | –

Ordered by SMILES length (largest number first): 3 of the compounds above.
SMILES | cell number change [%] | AC50 [1] | AC50 [2]
O=[N+]([O-])c1ccc(/C=C2\CCC(C3=CCCC3)=C2N2CCOCC2)cc1 | -5.95 | 0.651 µM [rising, single point] | –
C=CCn1c(CSc2nc3ccccc3s2)nnc1SCC(=O)NCc1cccnc1 | -18.6 | – | –
CSc1nsc(SCc2ccc(F)cc2)n1 | -14.5 | – | –

(further entries)

SMILES | cell number change [%] | AC50 [1] | AC50 [2]
O=C(NCCCNC1CCCCC1)c1ccc(/C=N/O)nc1 | -168 | 20.6 µM [falling, partial curve] | 29.1 µM [falling, single point]
C/C(=N\NC(=O)COc1ccccc1-c1ccccc1)c1cccnc1 | 37.9 | 0.651 µM [rising, full curve, poor fit] | 0.461 µM [rising, full curve]
O=C(CCCO)NNc1c2ccccc2nc2ccccc12 | -6.95 | 29.1 µM [falling, single point] | –
CC(CC(=O)Nc1cccnc1)c1ccccc1 (configuration not stated) | 32.1 | – | –
CC(Oc1cc2oc(=O)c3c(c2cc1Cl)CCC3)C(=O)NCc1ccccn1 (configuration not stated) | 10.9 | 1.84 µM [falling, full curve] | –
CCC(CC)C(=O)Nc1c(C)n(C)n(-c2ccccc2)c1=O | -42.8 | – | 0.651 µM [falling, full curve]
Cc1nc2cc(-c3ccccc3)[nH]n2c(=O)c1C | 7.61 | 10.3 µM [rising, partial curve] | –
COc1cc(/C=C/C(=O)OCC(=O)Nc2sc3c(c2C#N)CCC(C)C3)ccc1OCC#N (configuration not stated) | 24.2 | 29.1 µM [falling, single point] | –
CCSc1ccccc1C(=O)Nc1cccc(OC)c1 | 51.1 | – | 5.8 µM [rising, partial curve]
Cc1ccc(S(=O)(=O)n2c(N)nc3ccccc32)cc1 | 1.76 | 29.1 µM [rising, single point] | –
O=C(NCc1ccccc1)C(c1cccnc1)N(C(=O)c1csnn1)c1ccc(F)cc1 (configuration not stated) | -19 | – | –
CC(=O)N(/N=C1\Sc2ccccc2C1=O)c1ccc(C)cc1C | -11 | – | –
O=C(Cc1ccc(Cl)cc1)Nc1ccc(Br)cn1 | -11.1 | 29.1 µM [rising, single point] | –
Cc1c(Nc2cc(N3CCOCC3)c3nonc3c2[N+](=O)[O-])c(=O)n(-c2ccccc2)n1C | -45.4 | 0.231 µM [falling, full curve] | 0.651 µM [falling, full curve]
Cc1ccc(S(=O)(=O)NCC(=O)OC(C)C(=O)NC2CCCCC2C)cc1C (configuration not stated) | -10.3 | 0.366 µM [rising, partial curve, poor fit] | –
C=CCOc1nc(-c2ccccc2Cl)nc2ccccc12 | 15.9 | – | 2.06 µM [rising, single point]
COC(=O)[C@@]12CCCN1[C@H](c1ccc(-c3ccc(Cl)c(Cl)c3)cc1)[C@H]1C(=O)N(C)C(=O)[C@H]12 | -56.9 | – | 16.4 µM [falling, partial curve]
O=C(/C=C(\c1ccc(Cl)cc1)n1cncn1)c1ccc(Cl)cc1 | -11.5 | 0.366 µM [rising, full curve, poor fit] | –
COc1ccc2c(c1OC)C(=O)N1c3ccccc3SC21 (configuration not stated) | 26.4 | 1.64 µM [rising, partial curve] | –
O=C(NC1CCc2ccccc21)C1CCN(S(=O)(=O)c2ccc(Cl)cc2)CC1 (configuration not stated) | 6.31 | 32.6 µM [rising, partial curve, poor fit] | –

SMILES | cell number change [%] | AC50 [1] | AC50 [2]
Cc1cc(C)c(C)c(S(=O)(=O)NC(C(=O)O)C(C)C)c1C (configuration not stated) | -103 | – | 18.4 µM [falling, partial curve]
COc1cccc(C(=O)NC(=O)Nc2cc(C)on2)c1 | 38.6 | 3.26 µM [rising, partial curve] | 2.91 µM [rising, partial curve, poor fit]
COc1cc(OC)c(OC)cc1/C=C/C(=O)c1ccc(NS(=O)(=O)c2ccc(C)cc2)cc1 | 40.1 | 5.17 µM [rising, partial curve] | 3.66 µM [rising, partial curve]
CCCCOc1ccc(/C(O)=C2/C(=O)C(=O)N(CCN(C)C)C2c2ccc(O)c(OC)c2)cc1 (configuration not stated) | -0.0978 | 6.51 µM [rising, single point] | –
CC(C)(C)C(=O)Nc1ccc(-c2cn3ccsc3n2)cc1 | 7.59 | 18.4 µM [falling, single point] | –
O=C(CC1SC(=NCC2CCCO2)NC1=O)Nc1cc([N+](=O)[O-])ccc1Cl (configuration not stated) | 0.406 | 0.0651 µM [falling, full curve, poor fit] | –
Cc1ccc(NC(=O)COC(=O)c2ccco2)cc1C | 2.54 | 0.0092 µM [rising, full curve, poor fit] | –
CN1C(=O)C2(Oc3ccccc3C3CC(c4ccccc4)=NN32)c2ccccc21 (configuration not stated) | 0.774 | 7.31 µM [rising, single point] | –
COc1ccccc1[C@]1(C)ON(c2ccccc2C(F)(F)F)C1=O | -39.7 | 20.6 µM [falling, single point] | 8.2 µM [falling, single point]
CC(=O)c1cccc(NC(=O)Nc2ccc(C(=O)N3CCOCC3)cc2)c1 | 22.4 | 29.1 µM [rising, single point] | –
COc1ccc2cc(CCl)c(Cl)nc2c1 | -33.9 | 6.51 µM [falling, single point] | 3.66 µM [falling, single point]
Cc1ccc(NC(=O)c2ccc(NCCCN3CCC(C)CC3)c([N+](=O)[O-])c2)cc1F | -32.4 | 23.1 µM [falling, single point] | 29.1 µM [falling, single point]
O=[N+]([O-])c1ccccc1/C=C/C=N/N1CCCCC1 | 12.4 | – | 0.366 µM [rising, full curve, poor fit]
COc1ccccc1C(=O)Nc1ccc2c(c1)OCO2 | – | 2.91 µM [rising, partial curve] | 0.0291 µM [rising, full curve, poor fit]
CCc1sc(C(=O)NCc2cc(C)n(C)n2)cc1Br | -9.72 | 0.92 µM [rising, single point] | –
CC(C)NC(=O)CN1CCN(Cc2nc(C(c3ccccc3)c3ccccc3)no2)CC1 | 1.75 | – | –
Cc1ccc(S(=O)(=O)NCCc2ccccc2)cc1 | – | 6.51 µM [falling, single point] | –
CCn1c(C)nc2cc(OC)ccc21 | – | 0.259 µM [falling, full curve, poor fit] | –
CCN(C(=O)CN1CCN(S(=O)(=O)c2ccccc2C(F)(F)F)CC1)c1c(N)n(Cc2ccccc2)c(=O)[nH]c1=O | -25.2 | – | 0.00651 µM [falling, full curve, poor fit]

— PubChem BioAssay AID2685 (National Center for Advancing Translational Sciences (NCATS), 2010)
